Patent US20250060376A1
Results are given in words; binding and its absence hold for the method and conditions named. Some entries that bind do so weakly or less than the wild type.

Sequences of proteins named here, by UniProt entry; tags and fusion partners are left off. Residues count along the entry.
UniProt P13020, residues 26-780: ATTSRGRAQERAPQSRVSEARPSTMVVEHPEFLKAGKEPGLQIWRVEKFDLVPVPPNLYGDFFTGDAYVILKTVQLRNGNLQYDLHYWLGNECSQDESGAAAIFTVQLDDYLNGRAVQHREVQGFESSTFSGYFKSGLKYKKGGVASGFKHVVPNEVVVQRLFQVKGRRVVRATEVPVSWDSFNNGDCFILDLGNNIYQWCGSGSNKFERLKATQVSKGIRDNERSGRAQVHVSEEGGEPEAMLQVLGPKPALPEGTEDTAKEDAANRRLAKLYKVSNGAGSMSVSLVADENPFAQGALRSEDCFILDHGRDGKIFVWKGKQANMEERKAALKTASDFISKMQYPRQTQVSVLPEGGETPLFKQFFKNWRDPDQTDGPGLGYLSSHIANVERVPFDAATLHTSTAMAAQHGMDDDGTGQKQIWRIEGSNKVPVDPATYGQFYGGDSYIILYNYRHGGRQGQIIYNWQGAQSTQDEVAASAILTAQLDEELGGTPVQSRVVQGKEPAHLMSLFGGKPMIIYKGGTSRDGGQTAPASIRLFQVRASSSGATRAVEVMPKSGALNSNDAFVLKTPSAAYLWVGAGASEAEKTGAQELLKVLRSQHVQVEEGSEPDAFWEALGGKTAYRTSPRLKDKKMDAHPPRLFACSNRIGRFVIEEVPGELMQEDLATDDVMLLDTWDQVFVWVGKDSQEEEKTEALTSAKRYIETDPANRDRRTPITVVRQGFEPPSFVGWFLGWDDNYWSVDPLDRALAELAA

Biological target: gelsolin (mouse (hippocampus of DIR-KI mice)) (UniProt P13020)
Assay: PLA assay in hippocampus (FIG. 20D)

binding: binds
B1: DNA damage-inducible transcript 4-like (DDIT4L) intron retention spliced product (DIR) protein (protein)
chain: MVATGSLSSKNPASISELLDCGYHPESLLSGECPRCPPFSPPKVGASGSIGWAGFRLPPLPLCRRCHKIHLRRLLSKFSNIFSP
